Laboratory results: PubChem BioAssay AID1159584 (Peter MacCallum Cancer Centre, 2016)
Aim: 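Knock-downs that harm CDH1-null cells more than parental MCF10A cells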 (primary screen). System: human MCF10A breast epithelial cells, parental and CDH1-null. Reagents: siRNA against human genes. Read-out: 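ATP luminescence (CellTiter-Glo) viability per line relative to mean mock wells over all plates, and the ratio of CDH1-null to parental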. Direction: CDH1-null / parental viability ratio: higher = CDH1-null cells survive relatively better than parental; CDH1-null viability vs mock: higher = more viable CDH1-null cells; parental viability vs mock: higher = more viable parental cells.
Shown is one part, drawn at random, of about 18,000 reagents tested. Reagent sequences are not shown. Not given: the amount of reagent, the time to read-out.

| target | CDH1-null / parental viability ratio | CDH1-null viability vs mock (fraction of mock) | parental viability vs mock (fraction of mock) |
| --- | --- | --- | --- |
| ACTRT3 (GeneID 84517) | 0.91 | 0.86 | 0.95 |
| SYT9 (GeneID 143425) | 0.94 | 0.64 | 0.68 |
| DGAT2 (GeneID 84649) | 0.86 | 0.65 | 0.76 |
| HLA-DQA1 (GeneID 3117) | 0.84 | 0.66 | 0.79 |
| PRRC1 (GeneID 133619) | 0.98 | 0.84 | 0.86 |
| ETFA (GeneID 2108) | 0.74 | 0.7 | 0.94 |
| PROSER1 (GeneID 80209) | 1.04 | 0.5 | 0.48 |
| KNL1 (GeneID 57082) | 0.88 | 0.6 | 0.68 |
| ZNF441 (GeneID 126068) | 1.18 | 0.97 | 0.82 |
| STAG3L2 (GeneID 442582) | 1.08 | 0.57 | 0.53 |
| IFI30 (GeneID 10437) | 1.14 | 0.96 | 0.84 |
| SNX18 (GeneID 112574) | 1.19 | 0.51 | 0.43 |
| PRSS8 (GeneID 5652) | 1.21 | 0.94 | 0.78 |
| ETS2 (GeneID 2114) | 0.95 | 0.9 | 0.95 |
| IL31RA (GeneID 133396) | 1.09 | 0.97 | 0.89 |
| ADGRF2P (GeneID 222611) | 0.77 | 0.54 | 0.7 |
| QTRT1 (GeneID 81890) | 1.02 | 0.82 | 0.8 |
| VSX2 (GeneID 338917) | 1.03 | 0.8 | 0.78 |
| APPBP2 (GeneID 10513) | 0.94 | 0.64 | 0.68 |
| SLFN13 (GeneID 146857) | 1.08 | 0.83 | 0.77 |
| GOLT1A (GeneID 127845) | 1.06 | 1.08 | 1.02 |
| TRIR (GeneID 79002) | 1 | 0.52 | 0.52 |
| A4GNT (GeneID 51146) | 0.84 | 0.62 | 0.74 |
| ZNF519 (GeneID 162655) | 1.05 | 1.16 | 1.11 |
| ARHGEF1 (GeneID 9138) | 0.98 | 0.62 | 0.63 |
| SIGMAR1 (GeneID 10280) | 0.69 | 0.75 | 1.08 |
| TF (GeneID 7018) | 1.27 | 0.38 | 0.3 |
| SPINK6 (GeneID 404203) | 0.95 | 0.71 | 0.75 |
| RAB3IL1 (GeneID 5866) | 0.96 | 0.82 | 0.85 |
| POLR3GL (GeneID 84265) | 0.99 | 0.88 | 0.89 |
| HOXA10 (GeneID 3206) | 1.13 | 0.7 | 0.62 |
| CASP3 (GeneID 836) | 1.03 | 0.94 | 0.91 |
| CASTOR3P (GeneID 352954) | 0.9 | 0.76 | 0.84 |
| FRK (GeneID 2444) | 0.99 | 1.04 | 1.05 |
| CST6 (GeneID 1474) | 0.8 | 0.66 | 0.82 |
| DND1 (GeneID 373863) | 0.83 | 0.78 | 0.94 |
| MANBAL (GeneID 63905) | 1.02 | 0.82 | 0.8 |
| UBTF (GeneID 7343) | 1 | 0.92 | 0.92 |
| OR7A17 (GeneID 26333) | 0.96 | 0.7 | 0.73 |
| RIMKLA (GeneID 284716) | 0.93 | 0.78 | 0.84 |
| FFAR2 (GeneID 2867) | 0.85 | 0.89 | 1.05 |
| OTX1 (GeneID 5013) | 0.8 | 0.8 | 1 |
| CTNND1 (GeneID 1500) | 0.98 | 0.96 | 0.98 |
| ARHGAP4 (GeneID 393) | 1.13 | 1.11 | 0.98 |
| HSD11B1L (GeneID 374875) | 0.86 | 0.54 | 0.63 |
| PLPPR3 (GeneID 79948) | 1.13 | 1.02 | 0.9 |
| PIN1 (GeneID 5300) | 1.04 | 0.79 | 0.76 |
| TRAPPC11 (GeneID 60684) | 0.69 | 0.5 | 0.72 |
| TTC21A (GeneID 199223) | 0.76 | 0.38 | 0.5 |
| LALBA (GeneID 3906) | 1.43 | 1.06 | 0.74 |
| SOX15 (GeneID 6665) | 1.12 | 0.93 | 0.83 |
| MYOCD (GeneID 93649) | 1.19 | 0.94 | 0.79 |
| ARHGEF7 (GeneID 8874) | 0.81 | 0.63 | 0.78 |
| TMEM69 (GeneID 51249) | 1.12 | 0.92 | 0.82 |
| LZTS1 (GeneID 11178) | 1.99 | 1.37 | 0.69 |
| ENPEP (GeneID 2028) | 1.08 | 0.94 | 0.87 |
| TOR4A (GeneID 54863) | 0.85 | 0.73 | 0.86 |
| MAP3K7CL (GeneID 56911) | 0.7 | 0.53 | 0.76 |
| CNNM3 (GeneID 26505) | 1.53 | 1.04 | 0.68 |
| MPPED1 (GeneID 758) | 0.86 | 0.5 | 0.58 |
| PTCD3 (GeneID 55037) | 0.71 | 0.51 | 0.72 |
| COL6A3 (GeneID 1293) | 0.89 | 0.68 | 0.76 |
| CASP2 (GeneID 835) | 1.14 | 0.74 | 0.65 |
| RNF126 (GeneID 55658) | 0.82 | 0.74 | 0.9 |
| STN1 (GeneID 79991) | 0.96 | 0.82 | 0.85 |
| SF3B3 (GeneID 23450) | 1.2 | 0.36 | 0.3 |
| SPP2 (GeneID 6694) | 0.99 | 0.9 | 0.91 |
| CDC42BPB (GeneID 9578) | 0.88 | 0.77 | 0.88 |

An excerpt from above, limited to “CDH1-null / parental viability ratio”:
FFAR2 (GeneID 2867) = 0.85
OTX1 (GeneID 5013) = 0.8
CTNND1 (GeneID 1500) = 0.98
ARHGAP4 (GeneID 393) = 1.13
HSD11B1L (GeneID 374875) = 0.86
PLPPR3 (GeneID 79948) = 1.13
PIN1 (GeneID 5300) = 1.04
TRAPPC11 (GeneID 60684) = 0.69
TTC21A (GeneID 199223) = 0.76
LALBA (GeneID 3906) = 1.43
